From patent US20220095622A1, “Application of Compounds Inhibiting Synthesis of Very Long Chain Fatty Acids in Preventing and Treating Microbial Pathogens and Method Thereof” (Sichuan Agricultural University, priority 2019, published 2022)
Some entries share one result that the patent states for a list of compounds.

system: Blumeria graminis; assay: Pathogenicity of Blumeria graminis on wheat leaves; format: in vivo; conditions: 500 μmol/L, after 4-5 days

Row | Structure (SMILES) | inhibition rate of the incidence of Blumeria graminis (disease index)
1 | CCSC(=O)N1CCCCCC1 [Molinate] | over 50%
2 | CCCCOCN(C(=O)CCl)c1c(CC)cccc1CC [Butachlor] | over 50%
3 | Cc1cccc(C)c1N(Cn1cccn1)C(=O)CCl [Metazachlor] | over 50%
